Measurements published in the supplement of paper PMC5393889.
Some of the results follow.

Tested on: Caenorhabditis elegans N2
Assay: aldicarb interaction hit call (worm growth perturbed in combination with 10 uM aldicarb in both replicates, no effect as single agent) (binary (1 = interacts)); higher = interacts with aldicarb (growth perturbed)
Details: first compound 1.5 µM; aldicarb concentration 10 µM; 6 days; 20 °C

| Compound | aldicarb interaction hit call |
| --- | --- |
| CCN1CCN(c2ccc(NC(=O)c3cccs3)cc2Cl)CC1 [wact-103] + CNC(=O)O/N=C/C(C)(C)SC [aldicarb] | inactive: 0 |
| Cc1ccc(-c2nnc3n2C(C)(C)Cc2ccccc2-3)cc1 [wact-431] + CNC(=O)O/N=C/C(C)(C)SC [aldicarb] | inactive: 0 |
| Fc1cccc(-c2nc(-c3ccccc3)no2)c1 [wact-191] + CNC(=O)O/N=C/C(C)(C)SC [aldicarb] | inactive: 0 |
| Cc1cc(Nc2ccc(Cl)cc2)ncn1 [wact-576] + CNC(=O)O/N=C/C(C)(C)SC [aldicarb] | inactive: 0 |
| Cc1ccc2nc(-c3ccc(/N=C/c4ccc(O)cc4O)cc3)sc2c1 [wact-373] + CNC(=O)O/N=C/C(C)(C)SC [aldicarb] | inactive: 0 |
| Cc1oc(-c2cccc(Cl)c2)nc1CN1CCC(c2ccncc2)CC1 [wact-276] + CNC(=O)O/N=C/C(C)(C)SC [aldicarb] | inactive: 0 |
| Cn1nccc1C(=O)Nc1ccc(Cl)c(C(F)(F)F)c1 [wact-198] + CNC(=O)O/N=C/C(C)(C)SC [aldicarb] | inactive: 0 |
| Clc1ccc(-c2noc(CSc3ccccc3)n2)cc1 [wact-14] + CNC(=O)O/N=C/C(C)(C)SC [aldicarb] | inactive: 0 |
| O=C(NC(=S)Nc1ccccc1Cl)c1cccs1 [wact-458] + CNC(=O)O/N=C/C(C)(C)SC [aldicarb] | inactive: 0 |
| Brc1cccc(-c2cn3ccccc3n2)c1 [wact-435] + CNC(=O)O/N=C/C(C)(C)SC [aldicarb] | inactive: 0 |
| Nc1nc(SC(c2ccccc2)c2ccc(Cl)cc2)ns1 (stereo not drawn) [wact-126] + CNC(=O)O/N=C/C(C)(C)SC [aldicarb] | inactive: 0 |
| O=C(NCCC1=CCCCC1)c1ccc(OC2CCN(Cc3ccccn3)CC2)cc1 [wact-234] + CNC(=O)O/N=C/C(C)(C)SC [aldicarb] | inactive: 0 |
| C#CCSc1nnc(-c2ccccc2)o1 [wact-345] + CNC(=O)O/N=C/C(C)(C)SC [aldicarb] | inactive: 0 |
| O=C(c1csc(-c2ccc(C(F)(F)F)cc2)n1)N1CCC2(CCCN(CC3CC3)C2)C1 (stereo not drawn) [wact-299] + CNC(=O)O/N=C/C(C)(C)SC [aldicarb] | inactive: 0 |
| Cc1ccccc1-c1noc(-c2cccs2)n1 [wact-59] + CNC(=O)O/N=C/C(C)(C)SC [aldicarb] | inactive: 0 |
| O=C(Nc1ccc(Cl)c(Cl)c1)NC1CCN(Cc2ccccc2)CC1 [wact-110] + CNC(=O)O/N=C/C(C)(C)SC [aldicarb] | inactive: 0 |
| Nc1cccc(-c2nc3ccccc3s2)c1 [wact-387] + CNC(=O)O/N=C/C(C)(C)SC [aldicarb] | inactive: 0 |
| Cc1ccc(-c2noc(-c3ccccn3)n2)cc1 [wact-611] + CNC(=O)O/N=C/C(C)(C)SC [aldicarb] | inactive: 0 |
| c1ccc(OCc2nc(-c3ccccc3)no2)cc1 [wact-62] + CNC(=O)O/N=C/C(C)(C)SC [aldicarb] | inactive: 0 |

Copied from the entries so far for reference:

| Compound | aldicarb interaction hit call |
| --- | --- |
| Cn1nccc1C(=O)Nc1ccc(Cl)c(C(F)(F)F)c1 [wact-198] + CNC(=O)O/N=C/C(C)(C)SC [aldicarb] | inactive: 0 |
| Clc1ccc(-c2noc(CSc3ccccc3)n2)cc1 [wact-14] + CNC(=O)O/N=C/C(C)(C)SC [aldicarb] | inactive: 0 |

Going on with the list.

| Compound | aldicarb interaction hit call |
| --- | --- |
| O=C(c1cc(COc2ccc3ncccc3c2)on1)N1CCCC1c1ccc(F)cc1 (stereo not drawn) [wact-277] + CNC(=O)O/N=C/C(C)(C)SC [aldicarb] | inactive: 0 |
| CCNCCOc1ccc(Cl)c2ccccc12.Cl [wact-163] + CNC(=O)O/N=C/C(C)(C)SC [aldicarb] | inactive: 0 |
| COc1cc2c(cc1CNC1CCCN(c3ccc(C(F)(F)F)cn3)C1)OCO2 (stereo not drawn) [wact-288] + CNC(=O)O/N=C/C(C)(C)SC [aldicarb] | inactive: 0 |
| O=C(Nc1cccc(Cl)c1)N1CCN(c2ccc([N+](=O)[O-])cc2)CC1 [wact-31] + CNC(=O)O/N=C/C(C)(C)SC [aldicarb] | inactive: 0 |
| Nc1nc(SCc2ccccc2)ns1 [wact-597] + CNC(=O)O/N=C/C(C)(C)SC [aldicarb] | inactive: 0 |
| C#CCSc1nnc(-c2ccc(OC)cc2)o1 [wact-210] + CNC(=O)O/N=C/C(C)(C)SC [aldicarb] | inactive: 0 |
| CCNCc1ccc(-c2ccc(Br)cc2C)o1.Cl [wact-202] + CNC(=O)O/N=C/C(C)(C)SC [aldicarb] | inactive: 0 |
| O=C(Nc1ccc(C(F)(F)F)cc1)C1CCN(C(=O)c2ccc([N+](=O)[O-])cc2)CC1 [wact-222] + CNC(=O)O/N=C/C(C)(C)SC [aldicarb] | inactive: 0 |
| O=C(Nc1ccc(Cl)cc1)N1CCCC(N2CCN(c3ccccc3)CC2)C1 (stereo not drawn) [wact-327] + CNC(=O)O/N=C/C(C)(C)SC [aldicarb] | inactive: 0 |
| CCCOc1ccc(S(=O)(=O)N2CCCCC2)cc1C [wact-231] + CNC(=O)O/N=C/C(C)(C)SC [aldicarb] | inactive: 0 |
| Brc1ccc2[nH]c3c(c2c1)CCCC3NCc1ccccc1 (stereo not drawn) [wact-392] + CNC(=O)O/N=C/C(C)(C)SC [aldicarb] | inactive: 0 |
| Clc1cccc(OCc2nc(-c3ccccc3)no2)c1 [wact-564] + CNC(=O)O/N=C/C(C)(C)SC [aldicarb] | inactive: 0 |
| C#CC(C)(C)OC(=O)Nc1ccc([N+](=O)[O-])cc1 [wact-211] + CNC(=O)O/N=C/C(C)(C)SC [aldicarb] | inactive: 0 |
| CCOc1ccc(/C=C/[N+](=O)[O-])cc1 [wact-385] + CNC(=O)O/N=C/C(C)(C)SC [aldicarb] | inactive: 0 |
| COc1cc(C(=O)NC(=S)Nc2cc(Cl)ccc2Cl)cc(OC)c1OC [wact-462] + CNC(=O)O/N=C/C(C)(C)SC [aldicarb] | inactive: 0 |
| O=S(=O)(Nc1cc(Cl)cc(Cl)c1)c1ccc(Cl)cc1 [wact-407] + CNC(=O)O/N=C/C(C)(C)SC [aldicarb] | inactive: 0 |
| O=C(c1ccccc1[N+](=O)[O-])N1CCN(c2ccc(Cl)c(Cl)c2)CC1 [wact-88] + CNC(=O)O/N=C/C(C)(C)SC [aldicarb] | inactive: 0 |
| CNCc1ccc(-c2ccc(Br)cc2)o1.Cl [wact-192] + CNC(=O)O/N=C/C(C)(C)SC [aldicarb] | inactive: 0 |
| O=C(c1ccc2oc(Cc3ccc(Cl)cc3)nc2c1)N1CCC(c2ccncc2)CC1 [wact-310] + CNC(=O)O/N=C/C(C)(C)SC [aldicarb] | inactive: 0 |
